Data as given in PubChem BioAssay AID504764 (Drosophila RNAi Screening Center, 2011).

- Purpose: 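Genome-wide screen for regulators of Notch-driven gene expression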 (primary screen)
- System: Drosophila Kc167 cells
- Reagent: long dsRNA against Drosophila genes
- Timing: about 5 days (4 days dsRNA, then 24 h after transfection)
- Conditions: transfection of constitutively active membrane-tethered Notch lacking the extracellular domain, read 24 h later
- Measured: 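Firefly luciferase from an E(spl)m3 reporter with active Notch, plus control-promoter and uninduced reporter wells for normalisation; unnormalised counts, duplicate wells a and b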
- Reading the numbers: induced reporter light, run 1, well a and induced reporter light, run 1, well b: higher = more light from the Notch target reporter with active Notch; control promoter light, run 1, well a and control promoter light, run 1, well b: higher = more light from the viral control promoter (cell number, transfection, viability); uninduced reporter light, run 1, well a: higher = more light from the Notch target reporter without active Notch
- Call rule: 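Wells with low control signal or poorly matching duplicates excluded; duplicates averaged; per source plate, z beyond ±2 for induced/control log2 ratio or beyond ±1.8 for induced/uninduced marks a hit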
- Calls: active = modifier hit (raised or lowered Notch signal); inactive = not a hit
In all, the deposit lists about 22,000 reagents; below is an unselected part of those that have a named target and a result. Over the whole deposit, 403 (1.9%) were called active. 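Unnormalised raw counts per well; ratio z-scores behind the hit calls and whether each hit raises or lowers signal are not deposited.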 The numbers tell different reagents against one gene apart. Not given: the amount of reagent.

target | reagent no. | induced reporter light, run 1, well a | induced reporter light, run 1, well b | control promoter light, run 1, well a | control promoter light, run 1, well b | uninduced reporter light, run 1, well a | call
CG14205 (GeneID 32952) | 1 | 1.10e5 | 1.20e5 | 1.26e5 | 1.16e5 | 13270 | inactive
TkR86C (GeneID 41286) | 1 | 96395 | 1.05e5 | 78650 | 63705 | 6450 | inactive
Sf3b5 (GeneID 50007) | 1 | 75805 | 72410 | 56865 | 60110 | 4855 | inactive
CG14609 (GeneID 40864) | 1 | 1.21e5 | 1.30e5 | 1.33e5 | 1.07e5 | 11420 | inactive
CG32512 (GeneID 33085) | 1 | 1.11e5 | 90215 | 99945 | 1.33e5 | 10035 | inactive
CG32512 (GeneID 33085) | 2 | 56745 | 40640 | 54400 | 52410 | 7230 | inactive
Tob (GeneID 32574) | 1 | 97345 | 95880 | 1.53e5 | 1.27e5 | 7165 | inactive
Nep2 (GeneID 40588) | 1 | 1.49e5 | 1.47e5 | 1.20e5 | 1.03e5 | 9285 | inactive
Vps35 (GeneID 37536) | 1 | 2.77e5 | 2.46e5 | 2.02e5 | 1.70e5 | 17695 | inactive
Hmx (GeneID 42110) | 1 | 2.27e5 | 2.37e5 | 2.24e5 | 2.14e5 | 20545 | inactive
Hmx (GeneID 42110) | 2 | 1.65e5 | 1.73e5 | 1.35e5 | 1.32e5 | 12600 | inactive
Hmx (GeneID 42110) | 3 | – | – | – | – | – | inactive
roq (GeneID 39818) | 1 | 1.08e5 | 1.56e5 | 59345 | 62645 | 8378 | inactive
Tsp (GeneID 33941) | 1 | 1.33e5 | 1.41e5 | 1.83e5 | 1.83e5 | 15820 | inactive
Tsp (GeneID 33941) | 2 | 1.55e5 | 1.06e5 | 1.57e5 | 1.38e5 | 8182 | inactive
Bmcp (GeneID 39322) | 1 | 1.32e5 | 1.19e5 | 70580 | 32885 | 12200 | inactive
abo (GeneID 44793) | 1 | 1.13e5 | 1.33e5 | 64425 | 79160 | 16532 | inactive
stops (GeneID 43683) | 1 | 1.18e5 | 1.23e5 | 1.80e5 | 1.71e5 | 11190 | inactive
stops (GeneID 43683) | 2 | 1.44e5 | 1.13e5 | 1.90e5 | 2.24e5 | 12890 | inactive
stops (GeneID 43683) | 3 | 1.40e5 | 1.56e5 | 1.98e5 | 1.61e5 | 12045 | inactive

4 entries already listed, arranged by “induced reporter light, run 1, well a”, low to high.
target | reagent no. | induced reporter light, run 1, well a | induced reporter light, run 1, well b | control promoter light, run 1, well a | control promoter light, run 1, well b | uninduced reporter light, run 1, well a | call
Sf3b5 (GeneID 50007) | 1 | 75805 | 72410 | 56865 | 60110 | 4855 | inactive
TkR86C (GeneID 41286) | 1 | 96395 | 1.05e5 | 78650 | 63705 | 6450 | inactive
CG14205 (GeneID 32952) | 1 | 1.10e5 | 1.20e5 | 1.26e5 | 1.16e5 | 13270 | inactive
CG14609 (GeneID 40864) | 1 | 1.21e5 | 1.30e5 | 1.33e5 | 1.07e5 | 11420 | inactive

Next records follow:
target | reagent no. | induced reporter light, run 1, well a | induced reporter light, run 1, well b | control promoter light, run 1, well a | control promoter light, run 1, well b | uninduced reporter light, run 1, well a | call
CG32461 (GeneID 318042) | 1 | 2.86e5 | 2.45e5 | 3.06e5 | 2.67e5 | 20765 | inactive
dor (GeneID 31118) | 1 | 2.26e5 | 2.29e5 | 2.73e5 | 2.65e5 | 12265 | inactive
CG14434 (GeneID 31632) | 1 | 48170 | 42335 | 77735 | 67435 | 3440 | inactive
Sec61gamma (GeneID 32968) | 1 | 69920 | 64665 | 84250 | 92155 | 8075 | inactive
Cnep1r2 (GeneID 39204) | 1 | 1.26e5 | 1.30e5 | 69460 | 29555 | 9670 | inactive
CG30203 (GeneID 246514) | 1 | 83910 | 1.05e5 | 1.24e5 | 1.18e5 | 8560 | inactive
borr (GeneID 34245) | 1 | 52210 | 52235 | 57660 | 42815 | 6445 | inactive
CG6479 (GeneID 39930) | 1 | 87570 | 1.11e5 | 58800 | 90040 | 8215 | inactive
CG33768 (GeneID 3771840) | 1 | 1.19e5 | 1.29e5 | 1.26e5 | 1.01e5 | 10195 | inactive
CG13502 (GeneID 37518) | 1 | 44540 | 37860 | 40840 | 49645 | 1625 | inactive
flip (GeneID 40539) | 1 | 65095 | 50650 | 47700 | 33485 | 4085 | inactive
PGAP1 (GeneID 31487) | 1 | 2.37e5 | 1.91e5 | 2.42e5 | 2.28e5 | 10905 | inactive
CG12078 (GeneID 38401) | 1 | 1.21e5 | 1.33e5 | 1.65e5 | 1.24e5 | 6865 | inactive
Muc91C (GeneID 42246) | 1 | 1.97e5 | 1.68e5 | 1.81e5 | 1.99e5 | 12155 | inactive
Mtpalpha (GeneID 34276) | 1 | 2.45e5 | 2.28e5 | 1.85e5 | 1.77e5 | 17225 | inactive
CG13063 (GeneID 39797) | 1 | 1.51e5 | 1.58e5 | 2.07e5 | 2.22e5 | 7975 | inactive
CG31189 (GeneID 42487) | 1 | 1.68e5 | 1.49e5 | 1.67e5 | 1.62e5 | 11080 | inactive
Or23a (GeneID 33450) | 1 | 93240 | 97115 | 1.06e5 | 76155 | 8355 | inactive
CG33757 (GeneID 3772602) | 1 | 45435 | 56535 | 69220 | 76915 | 2380 | inactive
Nplp4 (GeneID 50190) | 1 | 1.47e5 | 1.07e5 | 1.09e5 | 92950 | 9638 | inactive
CG32679 (GeneID 318150) | 1 | 62495 | 74575 | 88190 | 82050 | 4870 | inactive
CG3376 (GeneID 37884) | 1 | 1.03e5 | 1.25e5 | 65735 | 74755 | 6570 | inactive
D19A (GeneID 38718) | 1 | 64005 | 63625 | 52190 | 24800 | 7010 | inactive
Tango14 (GeneID 33298) | 1 | 91680 | 78180 | 81040 | 58875 | 5640 | inactive
chk (GeneID 35578) | 1 | 1.90e5 | 1.50e5 | 1.75e5 | 1.85e5 | 13210 | inactive
her (GeneID 34992) | 1 | 2.91e5 | 2.36e5 | 2.16e5 | 2.13e5 | 17605 | inactive
CG17237 (GeneID 33411) | 1 | 1.06e5 | 1.31e5 | 1.14e5 | 81130 | 11050 | inactive
CG14126 (retired record) (GeneID 39350) | 1 | 1.51e5 | 1.55e5 | 1.96e5 | 1.63e5 | 7230 | inactive
Alk (GeneID 53425) | 1 | 1.31e5 | 89660 | 98100 | 1.17e5 | 16155 | inactive
CG11906 (GeneID 37209) | 1 | 1.11e5 | 86620 | 1.35e5 | 1.60e5 | 6415 | inactive
